Results: article doi:10.1101/2023.02.19.529116
No constants are given. Whether binding was seen depends on the method and setting. Some binding calls cover weakened binding; strength is not graded here. For some assays here: Sequences can lack the tags named with a protein. Values belong to the binder of their own block, whether it stands above or below them.

Key:
Assay in all cases: ReLo
[1] = biological target: T1, Smoothened (ReLo) (Drosophila) (UniProt P91682)
T1 sequence: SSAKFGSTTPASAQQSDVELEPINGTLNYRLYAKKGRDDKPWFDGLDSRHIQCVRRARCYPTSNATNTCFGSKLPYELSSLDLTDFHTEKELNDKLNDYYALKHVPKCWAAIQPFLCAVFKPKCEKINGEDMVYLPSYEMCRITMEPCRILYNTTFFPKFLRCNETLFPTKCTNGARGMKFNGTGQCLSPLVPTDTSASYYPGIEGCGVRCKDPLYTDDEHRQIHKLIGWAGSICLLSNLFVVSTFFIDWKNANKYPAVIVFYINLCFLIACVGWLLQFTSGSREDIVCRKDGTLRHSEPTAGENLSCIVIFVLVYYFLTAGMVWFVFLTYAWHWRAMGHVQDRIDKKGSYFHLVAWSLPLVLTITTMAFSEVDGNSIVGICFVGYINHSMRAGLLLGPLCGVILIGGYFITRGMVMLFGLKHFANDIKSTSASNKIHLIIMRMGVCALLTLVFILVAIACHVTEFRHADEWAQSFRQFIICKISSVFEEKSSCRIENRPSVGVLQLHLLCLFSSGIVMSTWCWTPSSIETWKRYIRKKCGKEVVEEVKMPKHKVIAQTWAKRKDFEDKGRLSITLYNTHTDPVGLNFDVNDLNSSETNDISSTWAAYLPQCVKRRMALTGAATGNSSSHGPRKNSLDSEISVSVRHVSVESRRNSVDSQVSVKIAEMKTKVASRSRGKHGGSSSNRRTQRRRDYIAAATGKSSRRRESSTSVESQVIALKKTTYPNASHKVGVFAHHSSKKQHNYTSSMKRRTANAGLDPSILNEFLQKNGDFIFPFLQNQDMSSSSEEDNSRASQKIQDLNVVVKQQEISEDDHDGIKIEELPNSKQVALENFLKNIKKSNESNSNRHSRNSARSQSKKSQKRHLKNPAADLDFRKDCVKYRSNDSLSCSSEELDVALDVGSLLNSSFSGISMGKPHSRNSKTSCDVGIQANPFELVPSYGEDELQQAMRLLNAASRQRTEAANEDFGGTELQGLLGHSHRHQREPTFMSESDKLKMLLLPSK

[2] = biological target: T2, PH-EGFP-Smaug (Drosophila) (UniProt Q23972)
T2 sequence: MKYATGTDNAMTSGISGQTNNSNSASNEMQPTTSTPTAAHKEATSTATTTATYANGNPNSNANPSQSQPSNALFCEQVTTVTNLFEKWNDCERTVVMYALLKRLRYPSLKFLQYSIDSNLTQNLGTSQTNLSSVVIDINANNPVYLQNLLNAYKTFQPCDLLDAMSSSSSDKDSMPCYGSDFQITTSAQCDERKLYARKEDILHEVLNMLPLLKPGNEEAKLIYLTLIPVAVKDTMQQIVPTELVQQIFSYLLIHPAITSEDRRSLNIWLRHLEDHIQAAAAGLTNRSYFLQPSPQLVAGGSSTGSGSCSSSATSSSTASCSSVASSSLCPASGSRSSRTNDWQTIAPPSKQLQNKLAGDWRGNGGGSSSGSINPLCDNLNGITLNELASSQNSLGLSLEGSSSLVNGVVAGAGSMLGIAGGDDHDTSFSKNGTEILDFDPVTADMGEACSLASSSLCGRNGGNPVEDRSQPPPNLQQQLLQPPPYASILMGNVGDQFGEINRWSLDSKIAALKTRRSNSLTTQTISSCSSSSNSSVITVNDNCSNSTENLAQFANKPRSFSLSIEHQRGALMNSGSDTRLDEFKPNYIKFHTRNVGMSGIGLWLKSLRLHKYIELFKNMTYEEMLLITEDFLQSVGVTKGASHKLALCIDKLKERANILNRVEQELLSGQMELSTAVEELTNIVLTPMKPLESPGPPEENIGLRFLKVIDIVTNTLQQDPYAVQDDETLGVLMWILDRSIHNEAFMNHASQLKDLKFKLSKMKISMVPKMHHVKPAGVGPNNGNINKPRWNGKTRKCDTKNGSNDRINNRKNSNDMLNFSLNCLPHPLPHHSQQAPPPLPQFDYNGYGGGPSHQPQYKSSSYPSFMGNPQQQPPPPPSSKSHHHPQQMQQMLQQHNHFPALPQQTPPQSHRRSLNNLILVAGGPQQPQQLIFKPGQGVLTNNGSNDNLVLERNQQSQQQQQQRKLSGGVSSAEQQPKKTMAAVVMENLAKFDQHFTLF

[3] = biological target: T3, Smoothened 958-1003 (ReLo) (Drosophila) (UniProt P91682)
T3 sequence: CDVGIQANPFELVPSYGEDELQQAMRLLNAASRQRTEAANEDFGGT

binding [1]: binds
B1: Fused (enzyme, UniProt P23647 1-805)
chain: MNRYAVSSLVGQGSFGCVYKATRKDDSKVVAIKVISKRGRATKELKNLRRECDIQARLKHPHVIEMIESFESKTDLFVVTEFALMDLHRYLSYNGAMGEEPARRVTGHLVSALYYLHSNRILHRDLKPQNVLLDKNMHAKLCDFGLARNMTLGTHVLTSIKGTPLYMAPELLAEQPYDHHADMWSLGCIAYESMAGQPPFCASSILHLVKMIKHEDVKWPSTLTSECRSFLQGLLEKDPGLRISWTQLLCHPFVEGRIFIAETQAEAAKESPFTNPEAKVKSSKQSDPEVGDLDEALAALDFGESRQENLTTSRDSINAIAPSDVEHLETDVEDNMQRVVVPFADLSYRDLSGVRAMPMVHQPVINSHTCFVSGNSNMILNHMNDNFDFQASLRGGGVAAKPIVAPTVRQSRSKDLEKRKLSQNLDNFSVRLGHSVDHEAQRKATEIATQEKHNQENKPPAEAISYANSQPPQQQPQQLKHSMHSTNEEKLSSDNTPPCLLPGWDSCDESQSPPIENDEWLAFLNRSVQELLDGELDSLKQHNLVSIIVAPLRNSKAIPRVLKSVAQLLSLPFVLVDPVLIVDLELIRNVYVDVKLVPNLMYACKLLLSHKQLSDSAASAPLTTGSLSRTLRSIPELTVEELETACSLYELVCHLVHLQQQFLTQFCDAVAILAASDLFLNFLTHDFRQSDSDAASVRLAGCMLALMGCVLRELPENAELVERIVFNPRLNFVSLLQSRHHLLRQRSCQLLRLLARFSLRGVQRIWNGELRFALQQLSEHHSYPALRGEAAQTLDEISHFTFFVT

binding [2]: no binding
B2: Ago2 (protein, UniProt Q9VUQ5 1-1214)
chain: MGKKDKNKKGGQDSAAAPQPQQQQKQQQQRQQQPQQLQQPQQLQQPQQLQQPQQQQQQQPHQQQQQSSRQQPSTSSGGSRASGFQQGGQQQKSQDAEGWTAQKKQGKQQVQGWTKQGQQGGHQQGRQGQDGGYQQRPPGQQQGGHQQGRQGQEGGYQQRPPGQQQGGHQQGRQGQEGGYQQRPSGQQQGGHQQGRQGQEGGYQQRPPGQQQGGHQQGRQGQEGGYQQRPSGQQQGGHQQGRQGQEGGYQQRPPGQQQGGHQQGRQGQEGGYQQRPPGQQQGGHEQGRQGQEGGYQQRPSGQQQGGHQQGRQGQEGGYQQRPSGQQQGGHQQGRQGQEGGYQQRPSGQQQGGHQQGRQGQEGGYQQRPPGQQPNQTQSQGQYQSRGPPQQQQAAPLPLPPQPAGSIKRGTIGKPGQVGINYLDLDLSKMPSVAYHYDVKIMPERPKKFYRQAFEQFRVDQLGGAVLAYDGKASCYSVDKLPLNSQNPEVTVTDRNGRTLRYTIEIKETGDSTIDLKSLTTYMNDRIFDKPMRAMQCVEVVLASPCHNKAIRVGRSFFKMSDPNNRHELDDGYEALVGLYQAFMLGDRPFLNVDISHKSFPISMPMIEYLERFSLKAKINNTTNLDYSRRFLEPFLRGINVVYTPPQSFQSAPRVYRVNGLSRAPASSETFEHDGKKVTIASYFHSRNYPLKFPQLHCLNVGSSIKSILLPIELCSIEEGQALNRKDGATQVANMIKYAATSTNVRKRKIMNLLQYFQHNLDPTISRFGIRIANDFIVVSTRVLSPPQVEYHSKRFTMVKNGSWRMDGMKFLEPKPKAHKCAVLYCDPRSGRKMNYTQLNDFGNLIISQGKAVNISLDSDVTYRPFTDDERSLDTIFADLKRSQHDLAIVIIPQFRISYDTIKQKAELQHGILTQCIKQFTVERKCNNQTIGNILLKINSKLNGINHKIKDDPRLPMMKNTMYIGADVTHPSPDQREIPSVVGVAASHDPYGASYNMQYRLQRGALEEIEDMFSITLEHLRVYKEYRNAYPDHIIYYRDGVSDGQFPKIKNEELRCIKQACDKVGCKPKICCVIVVKRHHTRFFPSGDVTTSNKFNNVDPGTVVDRTIVHPNEMQFFMVSHQAIQGTAKPTRYNVIENTGNLDIDLLQQLTYNLCHMFPRCNRSVSYPAPAYLAHLVAARGRVYLTGTNRFLDLKKEYAKRTIVPEFMKKNPMYFV

binding [2]: binds
B3: 14-3-3ζ (protein, UniProt P29310 1-248)
chain: MSTVDKEELVQKAKLAEQSERYDDMAQAMKSVTETGVELSNEERNLLSVAYKNVVGARRSSWRVISSIEQKTEASARKQQLAREYRERVEKELREICYEVLGLLDKYLIPKASNPESKVFYLKMKGDYYRYLAEVATGDARNTVVDDSQTAYQDAFDISKGKMQPTHPIRLGLALNFSVFYYEILNSPDKACQLAKQAFDDAIAELDTLNEDSYKDSTLIMQLLRDNLTLWTSDTQGDEAEPQEGGDN

binding [1]: binds
binding [3]: binds
B4: Smaug (ReLo, without membrane anchor) (protein, UniProt Q23972 1-999)
chain: T2 sequence
